The target of this assay is human PP1β^6-327 (human) (UniProt P62140). In words: BLI; HIS tagged PP1α, PP1β or PP1γ1 (50 μg/ml) immobilised on Ni-NTA biosensors, ASPP in solution in kinetics buffer, 25 °C, 1000 rpm; global fit 1:1 model; apparent KD; both purified. A general note: In BLI a coated tip is dipped into the sample, and binding shifts an interference pattern.

Sequences of proteins named here, by UniProt entry; tags and fusion partners are left off. Residues count along the entry.
UniProt P62140, residues 6-327: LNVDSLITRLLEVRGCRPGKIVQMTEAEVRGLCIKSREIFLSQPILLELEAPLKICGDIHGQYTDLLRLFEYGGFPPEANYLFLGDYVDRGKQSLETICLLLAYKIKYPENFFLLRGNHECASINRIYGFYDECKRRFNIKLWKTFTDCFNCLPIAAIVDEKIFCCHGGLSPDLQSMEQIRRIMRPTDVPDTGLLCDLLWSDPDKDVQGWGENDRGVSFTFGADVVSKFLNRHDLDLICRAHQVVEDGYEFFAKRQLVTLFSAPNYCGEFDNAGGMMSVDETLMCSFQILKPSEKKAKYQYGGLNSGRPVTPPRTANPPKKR

The results in this text go back to PMC6377682.

Results are given in words; binding and its absence hold for the method and conditions named. Some results given as binding are weak or reduced against the parent protein; the word gives no strength.

B1: human iASPP^621-828 (domain or fragment, UniProt Q8WUF5 621-828)
chain: RRARLNPLVLLLDAALTGELEVVQQAVKEMNDPSQPNEEGITALHNAICGANYSIVDFLITAGANVNSPDSHGWTPLHCAASCNDTVICMALVQHGAAIFATTLSDGATAFEKCDPYREGYADCATYLADVEQSMGLMNSGAVYALWDYSAEFGDELSFREGESVTVLRRDGPEETDWWWAALHGQEGYVPRNYFGLFPRVKPQRSKV
As for B1, the binding entry is on record as “binds”.
